Measurements taken from article PMC6280496.
No constants are given. Whether binding was seen depends on the method and setting. In cells and extracts the contact can be indirect.

Protein sequences, listed by entry. Tags and fused reporters are not part of them. Lines headed by an entry give the natural chain unless they say otherwise; changes in a name come on top.
UniProt P17301: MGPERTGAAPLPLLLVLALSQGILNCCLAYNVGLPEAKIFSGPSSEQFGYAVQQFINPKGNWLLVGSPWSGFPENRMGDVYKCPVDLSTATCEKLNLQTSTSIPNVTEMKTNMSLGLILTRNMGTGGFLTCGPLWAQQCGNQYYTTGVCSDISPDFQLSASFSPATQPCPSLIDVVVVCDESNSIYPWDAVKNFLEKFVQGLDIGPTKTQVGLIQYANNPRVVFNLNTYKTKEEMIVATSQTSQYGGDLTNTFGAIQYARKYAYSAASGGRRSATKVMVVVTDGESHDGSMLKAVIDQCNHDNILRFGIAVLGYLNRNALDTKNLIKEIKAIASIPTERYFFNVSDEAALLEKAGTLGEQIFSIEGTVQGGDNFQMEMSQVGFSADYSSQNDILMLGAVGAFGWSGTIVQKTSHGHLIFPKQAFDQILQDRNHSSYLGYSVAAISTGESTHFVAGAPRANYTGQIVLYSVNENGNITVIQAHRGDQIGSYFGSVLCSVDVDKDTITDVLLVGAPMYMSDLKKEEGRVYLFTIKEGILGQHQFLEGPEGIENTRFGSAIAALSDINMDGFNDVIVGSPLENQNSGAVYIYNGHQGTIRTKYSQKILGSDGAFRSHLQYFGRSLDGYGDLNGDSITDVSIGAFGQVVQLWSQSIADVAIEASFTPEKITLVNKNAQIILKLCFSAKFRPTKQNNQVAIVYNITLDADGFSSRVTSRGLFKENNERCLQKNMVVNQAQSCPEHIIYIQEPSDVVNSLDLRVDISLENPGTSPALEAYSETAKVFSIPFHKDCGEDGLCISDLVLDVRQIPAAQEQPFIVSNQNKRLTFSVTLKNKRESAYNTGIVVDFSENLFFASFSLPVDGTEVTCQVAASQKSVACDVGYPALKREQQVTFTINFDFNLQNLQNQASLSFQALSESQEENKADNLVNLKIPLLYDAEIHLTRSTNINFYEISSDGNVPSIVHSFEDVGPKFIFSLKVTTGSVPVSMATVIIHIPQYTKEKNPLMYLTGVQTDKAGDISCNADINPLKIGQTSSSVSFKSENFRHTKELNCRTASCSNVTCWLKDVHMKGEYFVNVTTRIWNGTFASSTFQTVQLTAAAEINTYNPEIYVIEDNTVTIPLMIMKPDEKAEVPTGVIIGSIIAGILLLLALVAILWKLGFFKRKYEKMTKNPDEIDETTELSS
UniProt P05556: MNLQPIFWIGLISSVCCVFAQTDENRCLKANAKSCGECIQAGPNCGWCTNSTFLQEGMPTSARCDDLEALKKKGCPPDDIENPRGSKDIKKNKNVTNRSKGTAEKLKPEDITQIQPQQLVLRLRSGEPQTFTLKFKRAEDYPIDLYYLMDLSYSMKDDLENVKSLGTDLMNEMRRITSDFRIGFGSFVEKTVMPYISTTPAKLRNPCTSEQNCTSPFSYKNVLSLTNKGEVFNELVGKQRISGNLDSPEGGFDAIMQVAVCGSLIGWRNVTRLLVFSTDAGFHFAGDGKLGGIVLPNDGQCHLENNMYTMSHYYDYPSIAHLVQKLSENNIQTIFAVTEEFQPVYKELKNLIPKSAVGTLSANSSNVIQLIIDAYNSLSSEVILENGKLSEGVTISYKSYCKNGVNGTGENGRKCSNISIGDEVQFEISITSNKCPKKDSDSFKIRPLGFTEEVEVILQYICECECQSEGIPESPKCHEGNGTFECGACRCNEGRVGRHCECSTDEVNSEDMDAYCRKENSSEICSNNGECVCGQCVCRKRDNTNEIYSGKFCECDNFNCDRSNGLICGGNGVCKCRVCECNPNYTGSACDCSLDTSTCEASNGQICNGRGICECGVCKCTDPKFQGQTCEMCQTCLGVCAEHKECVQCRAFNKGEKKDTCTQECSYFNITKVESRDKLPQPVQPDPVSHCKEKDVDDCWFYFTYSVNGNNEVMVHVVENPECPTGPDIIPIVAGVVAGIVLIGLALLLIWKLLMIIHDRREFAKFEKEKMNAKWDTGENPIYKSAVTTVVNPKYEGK

Target: integrin α2β1 (human (endogenous in CCA cells)) (UniProt P17301+P05556)
Assay: co-IP; CCA cells lysed in ice-cold IP lysis buffer with protease and phosphatase inhibitors; Dynabeads protein G IP kit; precipitates analysed by western blot

- binding: no binding
B1: Tetraspanin 1 (TSPAN1) (protein, UniProt O60635 1-241)
chain: MQCFSFIKTMMILFNLLIFLCGAALLAVGIWVSIDGASFLKIFGPLSSSAMQFVNVGYFLIAAGVVVFALGFLGCYGAKTESKCALVTFFFILLLIFIAEVAAAVVALVYTTMAEHFLTLLVVPAIKKDYGSQEDFTQVWNTTMKGLKCCGFTNYTDFEDSPYFKENSAFPPFCCNDNVTNTANETCTKQKAHDQKVEGCFNQLLYDIRTNAVTVGGVAAGIGGLELAAMIVSMYLYCNLQ
